Test: Steady-state T2-weighted MRI ΔR2 (relative CBV) maps and CNR of mouse brain after contrast agent
Assay type: in vivo, C57BL/6 mice
[1] = IP, doses 50 times or higher than the human IV dose

Compound: CNC(=O)CN(CCN(CCN(CC(=O)[O-])CC(=O)NC)CC(=O)[O-])CC(=O)[O-].[Gd+3] [gadodiamide]
- acquisition time at which AR2 peaked (IP 5 and 10 mmol/kg): 37.5 min
- time after which magnetic susceptibility perturbation was observed in T2 and T2* weighted images [1]: 7.5 min
- time after which plateau phase was reached [1]: 37.5 min
- optimum dose (IP, highest dose without toxicity): 10 mmol/kg
- CNR in the next imaging session (IP, no flush at the end of the imaging session): 1.62+/−0.59
- acquisition time at which AR2 peaked (IV (feridex 18 mg Fe/kg, GD 0.2 mmol/kg)): peaked at first acquisition time

Source: patent US20070264200A1, “Mouse MRI for drug screening” (priority 2005, published 2007)
